This is an account of results in publication PMC11323535.

Assay [1] deals with T1, full-length Siglec-14 expressed on CHO-K1 cells (human) (UniProt Q08ET2).
T1 sequence: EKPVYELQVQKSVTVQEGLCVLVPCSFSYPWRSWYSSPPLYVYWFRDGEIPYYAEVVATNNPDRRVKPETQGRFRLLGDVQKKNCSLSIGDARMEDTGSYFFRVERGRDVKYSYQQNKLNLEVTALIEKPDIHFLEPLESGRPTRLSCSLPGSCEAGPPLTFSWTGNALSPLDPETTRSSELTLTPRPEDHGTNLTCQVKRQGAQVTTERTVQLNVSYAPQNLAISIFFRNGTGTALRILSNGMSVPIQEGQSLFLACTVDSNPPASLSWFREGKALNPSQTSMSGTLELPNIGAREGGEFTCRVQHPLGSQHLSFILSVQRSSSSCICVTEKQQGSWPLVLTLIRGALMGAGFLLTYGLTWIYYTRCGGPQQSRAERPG
Description: flow cytometry on cells; transiently transfected CHO-K1 cells; rNadA 200 µg/mL, 30 min, 37°C; mouse polyclonal anti-NadA serum and APC secondary antibody; only the binder purified. A general note: Flow cytometry measures light scatter and fluorescence of single cells or particles in a stream.

The target in assay [2] is T2, full-length Siglec-5 expressed on CHO-K1 cells (human) (UniProt O15389).
T2 sequence: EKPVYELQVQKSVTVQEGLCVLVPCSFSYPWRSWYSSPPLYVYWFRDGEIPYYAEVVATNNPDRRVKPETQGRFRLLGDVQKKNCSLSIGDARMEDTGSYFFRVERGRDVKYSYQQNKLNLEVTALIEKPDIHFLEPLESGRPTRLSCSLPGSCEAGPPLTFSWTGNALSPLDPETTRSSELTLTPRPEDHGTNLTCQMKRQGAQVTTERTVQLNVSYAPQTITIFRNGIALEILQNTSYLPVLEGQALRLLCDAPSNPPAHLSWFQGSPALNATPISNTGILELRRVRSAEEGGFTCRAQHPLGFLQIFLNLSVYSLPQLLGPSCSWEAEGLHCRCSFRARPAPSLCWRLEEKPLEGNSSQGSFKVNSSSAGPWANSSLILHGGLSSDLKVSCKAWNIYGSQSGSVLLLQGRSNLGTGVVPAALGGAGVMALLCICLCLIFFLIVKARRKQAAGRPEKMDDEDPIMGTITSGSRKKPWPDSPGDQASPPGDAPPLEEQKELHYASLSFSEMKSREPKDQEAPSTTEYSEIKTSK
The description is as above.

Results are given in words; binding and its absence hold for the method and conditions named. Some entries that bind do so weakly or less than the wild type.

“recombinant soluble NadA (NadA_(24–350)) (from UniProt Q8KH85 24-350) (domain or fragment)”: the binding entry in assay [1] and in assay [2] was “binds” throughout.
